System: CT-DNA-EB adduct
Test: Fluorescence competitive displacement of ethidium bromide from CT-DNA
Parameters: species or system calf
Conditions: number of binding sites
From the text: The Stern–Volmer plot approach was used based on the fact that the Stern–Volmer plots for Q1–Q15 (Figure 5c), were linear an indication of only one mechanism for the quenching fluorescence, i.e., either dynamic or static. […] (1) Ksv=Kqτo where Ksv, Kq, and τo represent Stern–Volmer quenching constant, bimolecular quenching constant, and an average lifetime of the fluorophore in the absence of the quencher, respectively. τₒ normally takes about 10^−8 s in biomacromolecules.
The double-logarithmic Equation (2) was used in determining the binding constant of complexes Q1–Q15 and CT-DNA. (2) logFo−F/F=logKb+n logQ
A competitive displacement study was carried out using fluorescence spectroscopy between CT-DNA pre-treated with ethidium bromide (EB) and complexes Q1–Q15 to establish the complexes′ actual mode of binding to CT-DNA. […] The competitive luminescence displacement assay was done using a modified method. Pre-treated 15 µM solution of EB with 15 µM of CT-DNA was prepared in a phosphate buffer of pH 7.2 and left to equilibrate for 30 min. […] The fluorescence quenching ability of CT-DNA bound EB by the complexes were recorded in the wavelength range of 530–700 nm with an excitation wavelength at 525 nm at 25 °C. […]
A Stern–Volmer (Equation (6)) was used to evaluate the CT-DNA-EB fluorescence quenching of the complexes. […]

Compound: [Ag+].[O-][Cl+3]([O-])([O-])[O-] [AgClO4, silver perchlorate, reference compound]
- CT-DNA-EB-Complex n: 1.26

Compound: O=[N+]([O-])[O-].[Ag+] [AgNO3, silver nitrate, reference compound]
- CT-DNA-EB-Complex n: 1.24
